According to PMC6639074:
Results are given in words; binding and its absence hold for the method and conditions named. In cells and extracts the contact can be indirect. These calls come from enrichment with a bait or labelling near it, and not all partners need be listed. For part of these data: Where a sequence is shown, tags or fusion partners need not be part of it.

Chains of the proteins cited; added tags and fusions are not shown. Lines headed by an entry give the natural chain unless they say otherwise; changes in a name come on top. A line that says so, or that is headed by a name, gives the form on record, which may keep a tag or linker.
Rab5A(Q79L)-BirA*-HA-MAO (P20339, form named): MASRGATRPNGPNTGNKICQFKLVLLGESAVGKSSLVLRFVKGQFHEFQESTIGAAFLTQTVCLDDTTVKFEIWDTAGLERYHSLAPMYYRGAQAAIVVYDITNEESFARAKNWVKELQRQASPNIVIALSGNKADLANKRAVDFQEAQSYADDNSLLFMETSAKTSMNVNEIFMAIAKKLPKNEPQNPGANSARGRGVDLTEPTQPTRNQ

Columns and labels:
[1] = biological target: Rab5A(Q79L)-BirA*-HA-MAO (human) (UniProt P20339); test: proximity labelling; MitoID with versions of Rab5A(Q79L), streptavidin precipitates immunoblotted for Rab5 effectors
[2] = biological target: Rab5A(Q79L)-BirA*-HA-MAO (human) (UniProt P20339); test: proximity labelling; MitoID: GTPase-BirA*-HA-MAO chimera on mitochondria of transiently transfected HEK293T cells, 50 uM biotin 18 h, streptavidin beads, mass spectrometry, biological triplicates; hits by WD scores and volcano plots against the GDP-locked forms
[3] = biological target: T1, Rab2A(S20N)-BirA*-HA-MAO (human) (UniProt P61019); test: as above
T1 sequence: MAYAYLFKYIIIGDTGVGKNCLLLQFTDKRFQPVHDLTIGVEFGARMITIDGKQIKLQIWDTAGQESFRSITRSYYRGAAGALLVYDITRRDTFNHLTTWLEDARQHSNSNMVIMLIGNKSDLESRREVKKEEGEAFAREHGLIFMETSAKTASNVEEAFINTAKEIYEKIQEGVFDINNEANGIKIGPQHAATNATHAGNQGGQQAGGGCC

B1: OSBPL9 (protein, UniProt Q96SU4 1-736)
chain: MASIMEGPLSKWTNVMKGWQYRWFVLDYNAGLLSYYTSKDKMMRGSRRGCVRLRGAVIGIDDEDDSTFTITVDQKTFHFQARDADEREKWIHALEETILRHTLQLQGLDSGFVPSVQDFDKKLTEADAYLQILIEQLKLFDDKLQNCKEDEQRKKIETLKETTNSMVESIKHCIVLLQIAKDQSNAEKHADGMISTINPVDAIYQPSPLEPVISTMPSQTVLPPEPVQLCKSEQRPSSLPVGPVLATLGHHQTPTPNSTGSGHSPPSSSLTSPSHVNLSPNTVPEFSYSSSEDEFYDADEFHQSGSSPKRLIDSSGSASVLTHSSSGNSLKRPDTTESLNSSLSNGTSDADLFDSHDDRDDDAEAGSVEEHKSVIMHLLSQVRLGMDLTKVVLPTFILERRSLLEMYADFFAHPDLFVSISDQKDPKDRMVQVVKWYLSAFHAGRKGSVAKKPYNPILGEIFQCHWTLPNDTEENTELVSEGPVPWVSKNSVTFVAEQVSHHPPISAFYAECFNKKIQFNAHIWTKSKFLGMSIGVHNIGQGCVSCLDYDEHYILTFPNGYGRSILTVPWVELGGECNINCSKTGYSANIIFHTKPFYGGKKHRITAEIFSPNDKKSFCSIEGEWNGVMYAKYATGENTVFVDTKKLPIIKKKVRKLEDQNEYESRSLWKDVTFNLKIRDIDAATEAKHRLEERQRAEARERKEKEIQWETRLFHEDGECWVYDEPLLKRLGAAKH
binding [1]: binds | binding [2]: binds

B2: CLEC16A (protein, UniProt Q2KHT3 1-1053)
chain: MFGRSRSWVGGGHGKTSRNIHSLDHLKYLYHVLTKNTTVTEQNRNLLVETIRSITEILIWGDQNDSSVFDFFLEKNMFVFFLNILRQKSGRYVCVQLLQTLNILFENISHETSLYYLLSNNYVNSIIVHKFDFSDEEIMAYYISFLKTLSLKLNNHTVHFFYNEHTNDFALYTEAIKFFNHPESMVRIAVRTITLNVYKVSLDNQAMLHYIRDKTAVPYFSNLVWFIGSHVIELDDCVQTDEEHRNRGKLSDLVAEHLDHLHYLNDILIINCEFLNDVLTDHLLNRLFLPLYVYSLENQDKGGERPKISLPVSLYLLSQVFLIIHHAPLVNSLAEVILNGDLSEMYAKTEQDIQRSSAKPSIRCFIKPTETLERSLEMNKHKGKRRVQKRPNYKNVGEEEDEEKGPTEDAQEDAEKAKGTEGGSKGIKTSGESEEIEMVIMERSKLSELAASTSVQEQNTTDEEKSAAATCSESTQWSRPFLDMVYHALDSPDDDYHALFVLCLLYAMSHNKGMDPEKLERIQLPVPNAAEKTTYNHPLAERLIRIMNNAAQPDGKIRLATLELSCLLLKQQVLMSAGCIMKDVHLACLEGAREESVHLVRHFYKGEDIFLDMFEDEYRSMTMKPMNVEYLMMDASILLPPTGTPLTGIDFVKRLPCGDVEKTRRAIRVFFMLRSLSLQLRGEPETQLPLTREEDLIKTDDVLDLNNSDLIACTVITKDGGMVQRFLAVDIYQMSLVEPDVSRLGWGVVKFAGLLQDMQVTGVEDDSRALNITIHKPASSPHSKPFPILQATFIFSDHIRCIIAKQRLAKGRIQARRMKMQRIAALLDLPIQPTTEVLGFGLGSSTSTQHLPFRFYDQGRRGSSDPTVQRSVFASVDKVPGFAVAQCINQHSSPSLSSQSPPSASGSPSGSGSTSHCDSGGTSSSSTPSTAQSPADAPMSPELPKPHLPDQLVIVNETEADSKPSKNVARSAAVETASLSPSLVPARQPTISLLCEDTADTLSVESLTLVPPVDPHSLRSLTGMPPLSTPAAACTEPVGEEAACAEPVGTAED
binding [3]: binds
